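Genome-wide siRNA knockdown in TC32 Ewing sarcoma cells, comparing luciferase light from an NR0B1-promoter reporter with a CMV-promoter reporter 48 hours after transfection.
Each siRNA was applied at 20 nM.
A z-score of the log NR0B1-over-CMV signal, less the median of siRNAs with the same seed; more negative means a stronger specific loss of the NR0B1 reporter.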

The strongest results of the screen are mostly left out here.
Sequences are the guide (antisense) strand, without overhang.

siRNA	target gene	seed-corrected z-score
UAUCGAAAACUUCUCGUAC	ASB3	0.03345
UGCACUUUCACGUUGCUCU	FOXRED1	-0.07766
AUGCCCACCACUUUUACUG	PRG2	-0.7297
AAACCAAUAUUUGUCAUCC	C20orf173	-0.2375
UACUGAGCGAUGGAGCGUG	VTN	0.4865
UUUGAUAGUUGUGAUAAUC	NUFIP1	-0.4826
UACUCGAACUGAUAGAUGC	EVI5L	-0.04012
UAGUUUGGGACUGAGUUGC	NXT2	0.4343
UUUCCUACCCAGAUGUAGC	SCIN	0.03817
UGUAAUUCUACAUUUCGUG	SCN2A	-0.2344
AAUGGGCCGAUUGAAAGGC	DGAT2L6	-0.1218
UUACUCUCCAUCACGUUUC	ZNF212	-0.4891
AGUGGAUAAAGACUCAAUC	LOC643784	-0.3871
UCAAUGUCAUCCAUUGAUC	DENND1B	0.0257
UCUGUGACUGAGGAAAUCC	MRPL57	0.06478
UCUCUUGACCGUGUGAUCC	ZNF696	0.367
UUUAAUAUAGCGUGCAAUC	TEAD3	1.426
UCUUCUAGAAAAAUGCCUG	COL6A4P2	1.9
UGUUAAUAAAGUGUAAACC	SPATA4	1.082
UAGGUUGCCUUCCACAUUC	LAMC3	-1.363
UAAUUUCCUAUAGAGUUUC	CTAGE6	1.472
UGACGAUCGCGUACCAUAG	HERC2	-0.3854
UAGUUUGUCUCCAUGACCC	DHRS7B	-0.1566
AAUUGAAGAAGUAAUAGCC	CERS2	-0.9259
AAGUUAGAGACAGCGAUCC	RRM1	0.604
AAAGUUCCAGGAGCCAGAG	JPH2	-0.2984
UGUUGUAGAAAUCUCGGUG	AMPD2	-1.39
UUAGCUUCAAGGCGUAGUC	TAF6	-0.4098
UUGUCAUCUAGGCAAUGCC	RABIF	-0.1887
UAGAUAUUGAGGUUCCAGU	TSPAN17	-0.06738
UAGGAUACACUAUUUCAUC	FAM153B	-0.08448
UAUACUGGAGUUAUUGGGC	RBM47	0.2683
UCUUUGUCACUGGCCUUCU	CCER2	0.3226
UUUAGAUCAUAGUCUAUAC	TRPC4	-0.6532
ACAGGUUUCGUGAACAUCU	TRIM55	0.04069
AAUGAUACCUUUGCGAAUG	SLC20A2	-0.5027
ACGUAAAUCAUCUCCAUGC	PIK3C3	0.3572
UUCUGCAUCAUAUCGCCCU	OLIG3	-1.41
AUUAUAACCACCUUUCUGC	ZNF718	0.9496
UCUCUUAUGAAGGUUGCCC	C16orf78	0.204
AAUCAGUCUUUUGUCAUCC	NTM	0.7057
UCUGCUGCAGCUUAAAUUC	RARRES2	1.743
AAGCUGGAUAUGAAGUUGU	ISLR2	-0.2561
UGAGAUACAUGAAAGCACC	OR8B12	-0.6838
UCUCUUAAAACGAUCUAUC	STK26	-0.6139
UAAGUGUAAAGAGAGCAGG	CD226	0.009275
UAAGUUCUUUGGUCUGAAG	OR56B1	-1.633
UUCGUUCCUGAAGACACGG	CYB561	-1.286
UAAGAUGCCCGACAUGAGG	EGR4	0.224
AUCGGGUUGAAAGACAAGC	PARP4	0.08382
UUGCUAGCGAAGUCAGACG	HOXD11	-0.506
UCUACCUUGAGGUAUCUCC	BMP3	0.5108
UCUGAUGAACAGACUAUCC	WFDC13	0.1266
UUGAUGGUUGGGAAGGUGC	GPX2	-0.1438

The last 6 entries again:

siRNA	target gene	seed-corrected z-score
UAAGAUGCCCGACAUGAGG	EGR4	0.224
AUCGGGUUGAAAGACAAGC	PARP4	0.08382
UUGCUAGCGAAGUCAGACG	HOXD11	-0.506
UCUACCUUGAGGUAUCUCC	BMP3	0.5108
UCUGAUGAACAGACUAUCC	WFDC13	0.1266
UUGAUGGUUGGGAAGGUGC	GPX2	-0.1438

From PubChem BioAssay record AID1159506 (NCATS, 2015).